The test deals with full-length p53 (FLp53), endogenous (human (endogenous in LX-2)) (UniProt P04637). The experiment in a line: co-IP; untransfected LX-2 cells (endogenous proteins), vehicle or 5 ng/mL TGFβ1 for 24 h; lysate incubated with antibody against FLp53 or control IgG, Protein A/G magnetic beads, western blot for Smad3, p-Smad3, FLp53 and Δ40p53α. On the technique in general: Immunoblotting shows a protein as a band on a membrane.

Protein sequences, listed by entry. Tags and fused reporters are not part of them.
UniProt P84022: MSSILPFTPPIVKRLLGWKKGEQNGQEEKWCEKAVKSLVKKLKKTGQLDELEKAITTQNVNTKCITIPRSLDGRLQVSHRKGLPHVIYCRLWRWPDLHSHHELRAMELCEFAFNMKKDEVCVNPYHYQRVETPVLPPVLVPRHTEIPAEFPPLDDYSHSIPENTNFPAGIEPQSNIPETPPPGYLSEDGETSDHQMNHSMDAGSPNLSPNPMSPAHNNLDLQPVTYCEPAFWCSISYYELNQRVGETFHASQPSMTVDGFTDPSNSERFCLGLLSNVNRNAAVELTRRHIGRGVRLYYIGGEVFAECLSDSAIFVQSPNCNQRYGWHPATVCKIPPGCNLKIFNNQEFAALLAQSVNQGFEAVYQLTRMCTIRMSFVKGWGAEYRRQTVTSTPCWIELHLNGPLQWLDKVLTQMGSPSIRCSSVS

No constants are given. Whether binding was seen depends on the method and setting. In cells and extracts the contact can be indirect. Some entries that bind do so weakly or less than the wild type.

The values below come from paper PMC11999059.

In the case of “phosphorylated Smad3 (p-Smad3), endogenous (from UniProt P84022 1-425)”, the binding entry is “binds”.
